PMC3631140
These are yes or no findings as the source states them, for the method shown. Binding seen in cells or lysates may run through a third protein. For some assays here: A result given as binding can be weak or reduced; the word gives no strength. One block for each molecule: values may come before it.

Experiments:
[1] = target: T1, Vav1 (human (endogenous in Jurkat)) (UniProt P15498); assay: condition: only after CXCL12 stimulation (200 ng/ml); co-IP; endogenous proteins, lysates of control Jurkat C21 cells after CXCL12 (200 ng/ml) stimulation; IP with anti-Vav1 or anti-talin, immunoblotting
T1 sequence: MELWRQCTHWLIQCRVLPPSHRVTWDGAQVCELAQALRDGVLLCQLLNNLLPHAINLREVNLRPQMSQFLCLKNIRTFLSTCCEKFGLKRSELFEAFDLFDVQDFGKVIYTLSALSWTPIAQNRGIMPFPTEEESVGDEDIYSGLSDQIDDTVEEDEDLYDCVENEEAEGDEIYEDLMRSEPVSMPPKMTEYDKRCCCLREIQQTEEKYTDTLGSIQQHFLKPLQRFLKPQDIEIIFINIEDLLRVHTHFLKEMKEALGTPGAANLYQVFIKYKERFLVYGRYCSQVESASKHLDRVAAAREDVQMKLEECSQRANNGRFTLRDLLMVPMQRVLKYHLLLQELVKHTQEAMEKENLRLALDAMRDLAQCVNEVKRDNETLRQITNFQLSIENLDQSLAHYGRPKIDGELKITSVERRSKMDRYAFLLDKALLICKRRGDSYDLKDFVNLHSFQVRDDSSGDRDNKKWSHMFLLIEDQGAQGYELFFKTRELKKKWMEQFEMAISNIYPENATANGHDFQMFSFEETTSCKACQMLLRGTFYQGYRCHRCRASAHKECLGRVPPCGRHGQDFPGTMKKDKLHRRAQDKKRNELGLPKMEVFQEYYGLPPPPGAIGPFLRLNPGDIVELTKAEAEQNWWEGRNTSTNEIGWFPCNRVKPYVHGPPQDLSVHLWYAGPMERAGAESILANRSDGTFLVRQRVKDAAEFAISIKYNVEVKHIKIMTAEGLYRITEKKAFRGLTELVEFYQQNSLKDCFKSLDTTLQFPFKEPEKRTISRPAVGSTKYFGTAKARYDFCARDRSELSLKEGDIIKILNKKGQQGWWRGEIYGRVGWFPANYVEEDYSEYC

[2] = target: T1, Vav1 (human (endogenous in Jurkat)); assay: co-IP; endogenous proteins, lysates of control Jurkat C21 cells, unstimulated or stimulated with CXCL12 (200 ng/ml), pretreated with DMSO or piceatannol (25 µM); IP with anti-Vav1, anti-talin, anti-integrin β1 or anti-pVav1, immunoblotting
[3] = target: talin (human (endogenous in Jurkat)); assay: as above
[4] = target: talin (human (endogenous in Jurkat)); assay: condition: only after CXCL12 stimulation (200 ng/ml); co-IP; endogenous proteins, lysates of control Jurkat C21 cells after CXCL12 (200 ng/ml) stimulation; IP with anti-Vav1 or anti-talin, immunoblotting

binding [1]: no binding
binding [2]: binds
Molecule: talin (human (endogenous in Jurkat))

binding [3]: binds
B1: GM-CSF/IL-3/IL-5 receptor common beta-chain-associated protein (CBAP) (protein, UniProt Q8N9M5 1-508)
chain: MASAVWGSAPWWGPPPPAPARPLTDIDFCSGAQLQELTQLIQELGVQESWSDGPKPGADLLRAKDFVFSLLGLVHRRDPRFPPQAELLLLRGGIREGSLDLGHAPLGPYARGPHYDAGFTLLVPMFSLDGTELQLDLESCYAQVCLPEMVCGTPIREMWQDCLGPPVPGARDSIHRTESEESSKDWQSSVDQPHSYVTEHEAPVSLEKSPSDVSASESPQHDVVDLGSTAPLKTMSSDVTKAAVESPVPKPSEAREAWPTLCSAQVAAWFFATLAAVAESLIPVPGAPRLVHAARHAGFTTVLLATPEPPRRLLLFDLIPVVSVAGWPEGARSHSWAGPLASESASFYLVPGGGTERPCASAWQLCFARQELALKARIPAPLLQAHAAAQALLRPLVAGTRAAAPYLLRTLLYWACERLPALYLARPENAGACCLGLLDELGRVLEAGTLPHYFLNGRQLRTGDDSAALLGELARLRGDPARALRAAVEEAKVARKGGGLAGVGGGAH

binding [4]: no binding
binding [3]: binds
B2: Vav1 (protein, UniProt P15498 1-845)
chain: T1 sequence
